According to ChEMBL document CHEMBL4316593 (Eur J Med Chem, 2019):
The source gives many values for each of these; only a part stands here.

Legend:
Format in all cases: cell-based
Conditions in all cases: U-87MG ATCC
[1] = Inhibition of RTK/PI3K/AKT/mTOR signaling in human U87 cells assessed as up regulation of G protein subunit gamma 7 gene expression at cytotoxic IC50 measured after 48 hrs relative to control
[2] = Inhibition of RTK/PI3K/AKT/mTOR signaling in human U87 cells assessed as up regulation of mitogen-activated protein kinase 15 gene expression at cytotoxic IC50 measured after 48 hrs relative to control
[3] = Inhibition of RTK/PI3K/AKT/mTOR signaling in human U87 cells assessed as down regulation of AP2A1 gene expression at cytotoxic IC50 measured after 48 hrs relative to control
[4] = Inhibition of RTK/PI3K/AKT/mTOR signaling in human U87 cells assessed as up regulation of protein phosphatase, Mg2+/Mn2+ dependent 1M gene expression at cytotoxic IC50 measured after 48 hrs relative to control
[5] = Inhibition of RTK/PI3K/AKT/mTOR signaling in human U87 cells assessed as up regulation of CUL4A gene expression at cytotoxic IC50 measured after 48 hrs relative to control
[6] = Inhibition of RTK/PI3K/AKT/mTOR signaling in human U87 cells assessed as up regulation of FBXO9 gene expression at cytotoxic IC50 measured after 48 hrs relative to control
[7] = Inhibition of RTK/PI3K/AKT/mTOR signaling in human U87 cells assessed as down regulation of EWSR1 gene expression at cytotoxic IC50 measured after 48 hrs relative to control
[8] = Inhibition of RTK/PI3K/AKT/mTOR signaling in human U87 cells assessed as down regulation of HNRNPA2B1 gene expression at cytotoxic IC50 measured after 48 hrs relative to control
[9] = Inhibition of RTK/PI3K/AKT/mTOR signaling in human U87 cells assessed as up regulation of retinoid X receptor alpha gene expression at cytotoxic IC50 measured after 48 hrs relative to control
[10] = Inhibition of RTK/PI3K/AKT/mTOR signaling in human U87 cells assessed as down regulation of UBE2T gene expression at cytotoxic IC50 measured after 48 hrs relative to control
[11] = Inhibition of RTK/PI3K/AKT/mTOR signaling in human U87 cells assessed as down regulation of CEP97 gene expression at cytotoxic IC50 measured after 48 hrs relative to control
[12] = Inhibition of RTK/PI3K/AKT/mTOR signaling in human U87 cells assessed as down regulation of UPF1 gene expression at cytotoxic IC50 measured after 48 hrs relative to control
[13] = Inhibition of RTK/PI3K/AKT/mTOR signaling in human U87 cells assessed as down regulation of SMCO4 gene expression at cytotoxic IC50 measured after 48 hrs relative to control
[14] = Inhibition of RTK/PI3K/AKT/mTOR signaling in human U87 cells assessed as down regulation of IL17RA gene expression at cytotoxic IC50 measured after 48 hrs relative to control
[15] = Inhibition of RTK/PI3K/AKT/mTOR signaling in human U87 cells assessed as down regulation of VPS37A gene expression at cytotoxic IC50 measured after 48 hrs relative to control
[16] = Inhibition of RTK/PI3K/AKT/mTOR signaling in human U87 cells assessed as up regulation of TBC1 domain family member 8B gene expression at cytotoxic IC50 measured after 48 hrs relative to control
[17] = Inhibition of RTK/PI3K/AKT/mTOR signaling in human U87 cells assessed as up regulation of cadherin EGF LAG seven-pass G-type receptor 3 gene expression at cytotoxic IC50 measured after 48 hrs relative to control
[18] = Inhibition of RTK/PI3K/AKT/mTOR signaling in human U87 cells assessed as down regulation of NEAT1 gene expression at cytotoxic IC50 measured after 48 hrs relative to control
[19] = Inhibition of RTK/PI3K/AKT/mTOR signaling in human U87 cells assessed as up regulation of EPS8 like 1 gene expression at cytotoxic IC50 measured after 48 hrs relative to control
[20] = Inhibition of RTK/PI3K/AKT/mTOR signaling in human U87 cells assessed as down regulation of PCDHGA10 gene expression at cytotoxic IC50 measured after 48 hrs relative to control
[21] = Inhibition of RTK/PI3K/AKT/mTOR signaling in human U87 cells assessed as up regulation of progestin and adipoQ receptor family member 7 gene expression at cytotoxic IC50 measured after 48 hrs relative to control
[22] = Inhibition of RTK/PI3K/AKT/mTOR signaling in human U87 cells assessed as down regulation of CASC3 gene expression at cytotoxic IC50 measured after 48 hrs relative to control
[23] = Inhibition of RTK/PI3K/AKT/mTOR signaling in human U87 cells assessed as up regulation of TMEM123 gene expression at cytotoxic IC50 measured after 48 hrs relative to control
[24] = Inhibition of RTK/PI3K/AKT/mTOR signaling in human U87 cells assessed as up regulation of low density lipoprotein receptor class A domain containing 3 gene expression at cytotoxic IC50 measured after 48 hrs relative to control
[25] = Inhibition of RTK/PI3K/AKT/mTOR signaling in human U87 cells assessed as up regulation of JAG2 gene expression at cytotoxic IC50 measured after 48 hrs relative to control
[26] = Inhibition of RTK/PI3K/AKT/mTOR signaling in human U87 cells assessed as down regulation of PTGR1 gene expression at cytotoxic IC50 measured after 48 hrs relative to control
[27] = Inhibition of RTK/PI3K/AKT/mTOR signaling in human U87 cells assessed as down regulation of TMX4 gene expression at cytotoxic IC50 measured after 48 hrs relative to control
[28] = Inhibition of RTK/PI3K/AKT/mTOR signaling in human U87 cells assessed as up regulation of GJB3 gene expression at cytotoxic IC50 measured after 48 hrs relative to control
[29] = Inhibition of RTK/PI3K/AKT/mTOR signaling in human U87 cells assessed as down regulation of SPOUT1 gene expression at cytotoxic IC50 measured after 48 hrs relative to control
[30] = Inhibition of RTK/PI3K/AKT/mTOR signaling in human U87 cells assessed as down regulation of KIF11 gene expression at cytotoxic IC50 measured after 48 hrs relative to control
[31] = Inhibition of RTK/PI3K/AKT/mTOR signaling in human U87 cells assessed as down regulation of SUCO gene expression at cytotoxic IC50 measured after 48 hrs relative to control
[32] = Inhibition of RTK/PI3K/AKT/mTOR signaling in human U87 cells assessed as up regulation of RPL35A gene expression at cytotoxic IC50 measured after 48 hrs relative to control

Q: Which log2FC [1] does the source give for `CC(=O)C(=NNc1ccccc1C#N)C(C)=O` here?
A: 1.17

Q: What about the log2FC [2] of the same compound?
A: 1.52

Q: And the log2FC [3]?
A: -0.649

Q: What about the log2FC [4] of the same compound?
A: 1.12

Q: What about the log2FC [5] of the same compound?
A: 0.525

Q: What about the log2FC [6] of the same compound?
A: 0.629

Q: And the log2FC [7]?
A: -0.612

Q: What about the log2FC [8] of the same compound?
A: -0.359

Q: What about the log2FC [9] of the same compound?
A: 0.956

Q: And the log2FC [10]?
A: -0.956

Q: And the log2FC [11]?
A: -1.54

Q: And the log2FC [12]?
A: -0.461

Q: And the log2FC [13]?
A: -1.39

Q: And the log2FC [14]?
A: -0.53

Q: What about the log2FC [15] of the same compound?
A: -0.744

Q: And the log2FC [16]?
A: 0.788

Q: And the log2FC [17]?
A: 1.07

Q: What about the log2FC [18] of the same compound?
A: -0.941

Q: What about the log2FC [19] of the same compound?
A: 1.29

Q: And the log2FC [20]?
A: -1.05

Q: What about the log2FC [21] of the same compound?
A: 1.17

Q: And the log2FC [22]?
A: -0.398

Q: And the log2FC [23]?
A: 0.534

Q: And the log2FC [24]?
A: 1.32

Q: What about the log2FC [25] of the same compound?
A: 2.21

Q: What about the log2FC [26] of the same compound?
A: -0.805

Q: What about the log2FC [27] of the same compound?
A: -1.03

Q: What about the log2FC [28] of the same compound?
A: 2.21

Q: What about the log2FC [29] of the same compound?
A: -0.817

Q: And the log2FC [30]?
A: -0.828

Q: And the log2FC [31]?
A: -0.651

Q: What about the log2FC [32] of the same compound?
A: 0.506
